In experiment [1] the target is T1, BD-PUB31 (full length PUB31 as bait) (Arabidopsis thaliana) (UniProt Q9FHN9).
T1 sequence: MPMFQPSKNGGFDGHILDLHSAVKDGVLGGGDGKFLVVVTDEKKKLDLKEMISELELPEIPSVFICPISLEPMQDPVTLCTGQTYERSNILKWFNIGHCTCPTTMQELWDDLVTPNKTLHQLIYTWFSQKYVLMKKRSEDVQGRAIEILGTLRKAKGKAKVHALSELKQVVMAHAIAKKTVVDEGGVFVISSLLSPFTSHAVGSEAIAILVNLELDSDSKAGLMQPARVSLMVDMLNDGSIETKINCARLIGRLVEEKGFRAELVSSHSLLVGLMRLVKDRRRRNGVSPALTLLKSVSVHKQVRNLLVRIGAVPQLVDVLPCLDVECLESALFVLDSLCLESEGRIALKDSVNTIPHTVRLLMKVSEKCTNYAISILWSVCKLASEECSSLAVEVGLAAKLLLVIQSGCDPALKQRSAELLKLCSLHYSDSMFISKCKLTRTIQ
As to the kind of experiment: two-hybrid; yeast strain AH109; bait on the DNA-binding domain (pGBKT7), prey on the activation domain (pGADT7); growth on SD (-Trp, -Leu, -His) with 1 mM 3-AT, tenfold serial dilutions.

The target in experiment [2] is T2, BD-PUB30 (full length PUB30 as bait) (Arabidopsis thaliana) (UniProt Q058P4).
T2 sequence: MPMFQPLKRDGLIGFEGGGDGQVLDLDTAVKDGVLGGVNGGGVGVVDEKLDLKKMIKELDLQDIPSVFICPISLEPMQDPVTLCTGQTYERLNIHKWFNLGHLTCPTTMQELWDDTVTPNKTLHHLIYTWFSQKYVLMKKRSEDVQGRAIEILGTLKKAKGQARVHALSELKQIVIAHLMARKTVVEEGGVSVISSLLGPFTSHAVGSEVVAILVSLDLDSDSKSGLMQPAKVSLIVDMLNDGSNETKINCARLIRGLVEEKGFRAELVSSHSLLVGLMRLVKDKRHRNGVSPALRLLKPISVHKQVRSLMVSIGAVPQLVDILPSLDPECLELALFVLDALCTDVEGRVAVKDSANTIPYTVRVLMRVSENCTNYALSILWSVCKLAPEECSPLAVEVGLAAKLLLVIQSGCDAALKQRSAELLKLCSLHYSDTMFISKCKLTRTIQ
The experiment is described as above.

For experiment [3], the target named is T3, PUB31-MYC (Arabidopsis thaliana) (UniProt Q9FHN9).
T3 sequence: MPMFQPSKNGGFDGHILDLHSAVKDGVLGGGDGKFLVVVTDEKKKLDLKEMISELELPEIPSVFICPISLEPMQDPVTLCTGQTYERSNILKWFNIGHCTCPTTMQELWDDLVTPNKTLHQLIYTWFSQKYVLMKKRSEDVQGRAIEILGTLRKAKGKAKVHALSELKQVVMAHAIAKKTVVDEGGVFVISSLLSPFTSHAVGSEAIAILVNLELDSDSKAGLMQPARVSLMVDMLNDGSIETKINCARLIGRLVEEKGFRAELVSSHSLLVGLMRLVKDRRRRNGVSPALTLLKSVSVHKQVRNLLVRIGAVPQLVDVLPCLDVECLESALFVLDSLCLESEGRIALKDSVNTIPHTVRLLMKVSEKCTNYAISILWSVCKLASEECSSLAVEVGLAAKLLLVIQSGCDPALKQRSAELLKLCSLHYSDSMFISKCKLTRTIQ
The experiment is described as follows: co-IP; Arabidopsis protoplasts (WT or serk1 bak1-5) transfected with ERECTA-HA and PUB30/31-MYC (WT or phosphor-mutated); 2 uM MG132 1 h, 5 uM EPFL6 1 h; IP anti-MYC, blot anti-HA.

Experiment [4] concerns the target T4, PUB30-MYC (Arabidopsis thaliana) (UniProt Q058P4).
T4 sequence: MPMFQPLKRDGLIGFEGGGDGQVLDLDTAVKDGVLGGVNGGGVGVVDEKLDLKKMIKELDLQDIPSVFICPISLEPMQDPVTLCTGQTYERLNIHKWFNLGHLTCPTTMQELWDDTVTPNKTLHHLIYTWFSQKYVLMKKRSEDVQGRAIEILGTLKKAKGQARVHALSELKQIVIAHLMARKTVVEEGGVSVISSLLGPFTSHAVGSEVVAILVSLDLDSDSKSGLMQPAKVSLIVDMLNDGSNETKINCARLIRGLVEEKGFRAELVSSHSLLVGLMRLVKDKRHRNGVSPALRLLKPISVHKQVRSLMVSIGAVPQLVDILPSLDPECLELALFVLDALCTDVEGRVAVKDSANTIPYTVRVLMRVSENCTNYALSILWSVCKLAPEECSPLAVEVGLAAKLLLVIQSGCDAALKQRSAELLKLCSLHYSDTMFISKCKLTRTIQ
Described as above.

Experiment [5] concerns the target T5, PUB31_(T151D)-MYC (Arabidopsis thaliana) (UniProt Q9FHN9).
T5 sequence: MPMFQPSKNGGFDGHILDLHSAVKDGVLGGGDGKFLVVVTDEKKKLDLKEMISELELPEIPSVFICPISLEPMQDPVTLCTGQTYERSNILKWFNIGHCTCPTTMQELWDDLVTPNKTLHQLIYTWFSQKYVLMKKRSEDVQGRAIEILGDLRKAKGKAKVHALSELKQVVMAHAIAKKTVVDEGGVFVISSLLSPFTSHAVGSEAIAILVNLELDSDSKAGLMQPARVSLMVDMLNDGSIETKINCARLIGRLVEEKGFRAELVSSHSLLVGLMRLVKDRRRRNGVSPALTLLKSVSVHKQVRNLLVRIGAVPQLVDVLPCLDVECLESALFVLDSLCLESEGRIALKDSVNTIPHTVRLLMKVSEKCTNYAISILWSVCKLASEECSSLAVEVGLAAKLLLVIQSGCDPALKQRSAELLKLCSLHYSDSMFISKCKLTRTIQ
Described as above.

Experiment [6] deals with T6, PUB30_(T155D)-MYC (Arabidopsis thaliana) (UniProt Q058P4).
T6 sequence: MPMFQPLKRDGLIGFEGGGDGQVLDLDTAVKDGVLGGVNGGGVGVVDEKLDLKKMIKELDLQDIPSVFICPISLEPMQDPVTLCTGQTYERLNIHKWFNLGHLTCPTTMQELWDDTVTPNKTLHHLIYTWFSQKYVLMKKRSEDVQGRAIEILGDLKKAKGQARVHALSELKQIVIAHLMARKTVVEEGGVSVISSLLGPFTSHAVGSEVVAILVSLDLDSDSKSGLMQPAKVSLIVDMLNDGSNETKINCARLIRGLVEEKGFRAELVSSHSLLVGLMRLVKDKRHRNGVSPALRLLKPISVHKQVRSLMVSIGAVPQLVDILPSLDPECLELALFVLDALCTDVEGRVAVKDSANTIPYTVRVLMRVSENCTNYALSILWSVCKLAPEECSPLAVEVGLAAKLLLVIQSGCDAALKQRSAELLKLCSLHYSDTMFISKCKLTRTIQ
The experiment is described as above.

Experiment [7] deals with T7, PUB31-FLAG (Arabidopsis thaliana) (UniProt Q9FHN9).
T7 sequence: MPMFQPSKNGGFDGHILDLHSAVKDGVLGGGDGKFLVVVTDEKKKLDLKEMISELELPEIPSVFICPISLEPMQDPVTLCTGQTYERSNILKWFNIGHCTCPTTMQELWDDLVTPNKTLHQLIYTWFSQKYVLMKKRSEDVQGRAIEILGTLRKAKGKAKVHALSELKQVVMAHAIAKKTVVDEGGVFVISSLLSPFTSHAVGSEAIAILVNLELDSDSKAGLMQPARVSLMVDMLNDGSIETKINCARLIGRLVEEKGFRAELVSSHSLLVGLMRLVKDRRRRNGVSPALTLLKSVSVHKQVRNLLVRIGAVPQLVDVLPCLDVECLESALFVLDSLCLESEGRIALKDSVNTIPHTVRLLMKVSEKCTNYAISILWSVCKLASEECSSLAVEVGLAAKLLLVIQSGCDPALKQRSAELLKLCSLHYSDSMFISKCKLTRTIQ
As to the kind of experiment: co-IP; transgenic Arabidopsis seedlings with PUB30-FLAG or PUB31-FLAG and ERECTA-YFP; MG132, then buffer only, MEPF2 (2.5 uM) or MEPFL6 (2.5 uM) for 3 h; solubilized microsomal fraction; IP anti-FLAG, blot anti-GFP.

The target of experiment [8] is T8, PUB30-FLAG (Arabidopsis thaliana) (UniProt Q058P4).
T8 sequence: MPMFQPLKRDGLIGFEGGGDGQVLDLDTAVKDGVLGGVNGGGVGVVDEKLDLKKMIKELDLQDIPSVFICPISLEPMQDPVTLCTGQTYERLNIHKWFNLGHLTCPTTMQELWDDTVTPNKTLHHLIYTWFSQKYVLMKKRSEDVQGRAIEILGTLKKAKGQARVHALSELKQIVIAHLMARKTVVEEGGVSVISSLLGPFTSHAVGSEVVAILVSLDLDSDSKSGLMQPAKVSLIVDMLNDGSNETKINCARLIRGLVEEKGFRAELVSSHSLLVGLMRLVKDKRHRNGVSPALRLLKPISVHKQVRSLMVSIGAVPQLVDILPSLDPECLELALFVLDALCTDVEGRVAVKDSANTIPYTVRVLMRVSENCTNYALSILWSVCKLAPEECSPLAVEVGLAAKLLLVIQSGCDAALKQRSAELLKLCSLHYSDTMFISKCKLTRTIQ
The experiment is described as above.

These are yes or no findings as the source states them, for the method shown. For some of these results: In cells and extracts the contact can be indirect. Some results given as binding are weak or reduced against the parent protein; the word gives no strength. Where a sequence is shown, tags or fusion partners need not be part of it.

B1: kinase domain of BSK1 as prey (domain or fragment, UniProt Q944A7 76-331)
chain: DNIVSESGEKAPNLVYKGRLQNRRWIAVKKFTKMAWPEPKQFAEEAWGVGKLRHNRLANLIGYCCDGDERLLVAEFMPNDTLAKHLFHWENQTIEWAMRLRVGYYIAEALDYCSTEGRPLYHDLNAYRVLFDEDGDPRLSCFGLMKNSRDGKSYSTNLAYTPPEYLRNGRVTPESVTYSFGTVLLDLLSGKHIPPSHALDMIRGKNIILLMDSHLEGKFSTEEATVVVELASQCLQYEPRERPNTKDLVATLAPLQ
As to B1, the binding result in experiment [1] and in experiment [2] was “no binding” throughout.

B2: kinase domain of YDA as prey (domain or fragment, UniProt Q9CAD5 400-656)
chain: WKKGRLLGMGSFGHVYLGFNSESGEMCAMKEVTLCSDDPKSRESAQQLGQEISVLSRLRHQNIVQYYGSETVDDKLYIYLEYVSGGSIYKLLQEYGQFGENAIRNYTQQILSGLAYLHAKNTVHRDIKGANILVDPHGRVKVADFGMAKHITAQSGPLSFKGSPYWMAPEVIKNSNGSNLAVDIWSLGCTVLEMATTKPPWSQYEGVPAMFKIGNSKELPDIPDHLSEEGKDFVRKCLQRNPANRPTAAQLLDHAFV
Regarding B2, the binding result in experiment [1] and in experiment [2] was “no binding” each time.

B3: ERECTA-HA (receptor, UniProt Q42371 25-976)
chain: EEGATLLEIKKSFKDVNNVLYDWTTSPSSDYCVWRGVSCENVTFNVVALNLSDLNLDGEISPAIGDLKSLLSIDLRGNRLSGQIPDEIGDCSSLQNLDLSFNELSGDIPFSISKLKQLEQLILKNNQLIGPIPSTLSQIPNLKILDLAQNKLSGEIPRLIYWNEVLQYLGLRGNNLVGNISPDLCQLTGLWYFDVRNNSLTGSIPETIGNCTAFQVLDLSYNQLTGEIPFDIGFLQVATLSLQGNQLSGKIPSVIGLMQALAVLDLSGNLLSGSIPPILGNLTFTEKLYLHSNKLTGSIPPELGNMSKLHYLELNDNHLTGHIPPELGKLTDLFDLNVANNDLEGPIPDHLSSCTNLNSLNVHGNKFSGTIPRAFQKLESMTYLNLSSNNIKGPIPVELSRIGNLDTLDLSNNKINGIIPSSLGDLEHLLKMNLSRNHITGVVPGDFGNLRSIMEIDLSNNDISGPIPEELNQLQNIILLRLENNNLTGNVGSLANCLSLTVLNVSHNNLVGDIPKNNNFSRFSPDSFIGNPGLCGSWLNSPCHDSRRTVRVSISRAAILGIAIGGLVILLMVLIAACRPHNPPPFLDGSLDKPVTYSTPKLVILHMNMALHVYEDIMRMTENLSEKYIIGHGASSTVYKCVLKNCKPVAIKRLYSHNPQSMKQFETELEMLSSIKHRNLVSLQAYSLSHLGSLLFYDYLENGSLWDLLHGPTKKKTLDWDTRLKIAYGAAQGLAYLHHDCSPRIIHRDVKSSNILLDKDLEARLTDFGIAKSLCVSKSHTSTYVMGTIGYIDPEYARTSRLTEKSDVYSYGIVLLELLTRRKAVDDESNLHHLIMSKTGNNEVMEMADPDITSTCKDLGVVKKVFQLALLCTKRQPNDRPTMHQVTRVLGSFMLSEQPPAATDTSATLAGSCYVDEYANLKTPHSVNCSSMSASDAQLFLRFGQVISQNSE
On to B3, for which the binding entry in experiment [3], in experiment [4], in experiment [5] and in experiment [6] was “binds” in each case.

B4: ERECTA-YFP (receptor, UniProt Q42371 25-976)
chain: EEGATLLEIKKSFKDVNNVLYDWTTSPSSDYCVWRGVSCENVTFNVVALNLSDLNLDGEISPAIGDLKSLLSIDLRGNRLSGQIPDEIGDCSSLQNLDLSFNELSGDIPFSISKLKQLEQLILKNNQLIGPIPSTLSQIPNLKILDLAQNKLSGEIPRLIYWNEVLQYLGLRGNNLVGNISPDLCQLTGLWYFDVRNNSLTGSIPETIGNCTAFQVLDLSYNQLTGEIPFDIGFLQVATLSLQGNQLSGKIPSVIGLMQALAVLDLSGNLLSGSIPPILGNLTFTEKLYLHSNKLTGSIPPELGNMSKLHYLELNDNHLTGHIPPELGKLTDLFDLNVANNDLEGPIPDHLSSCTNLNSLNVHGNKFSGTIPRAFQKLESMTYLNLSSNNIKGPIPVELSRIGNLDTLDLSNNKINGIIPSSLGDLEHLLKMNLSRNHITGVVPGDFGNLRSIMEIDLSNNDISGPIPEELNQLQNIILLRLENNNLTGNVGSLANCLSLTVLNVSHNNLVGDIPKNNNFSRFSPDSFIGNPGLCGSWLNSPCHDSRRTVRVSISRAAILGIAIGGLVILLMVLIAACRPHNPPPFLDGSLDKPVTYSTPKLVILHMNMALHVYEDIMRMTENLSEKYIIGHGASSTVYKCVLKNCKPVAIKRLYSHNPQSMKQFETELEMLSSIKHRNLVSLQAYSLSHLGSLLFYDYLENGSLWDLLHGPTKKKTLDWDTRLKIAYGAAQGLAYLHHDCSPRIIHRDVKSSNILLDKDLEARLTDFGIAKSLCVSKSHTSTYVMGTIGYIDPEYARTSRLTEKSDVYSYGIVLLELLTRRKAVDDESNLHHLIMSKTGNNEVMEMADPDITSTCKDLGVVKKVFQLALLCTKRQPNDRPTMHQVTRVLGSFMLSEQPPAATDTSATLAGSCYVDEYANLKTPHSVNCSSMSASDAQLFLRFGQVISQNSE
As for B4, the binding entry in experiment [7] and in experiment [8] was “binds” throughout.
